Measurements reported in PubChem BioAssay AID1224829 (NIAID, 2016)

Assay: 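Secondary check of hits that alter LPS-induced p65 translocation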 (follow-up of hits)
Cells: mouse RAW264.7 G9 macrophage reporter cells
Knock-down reagent: single siRNA against mouse genes, 100 nM
Duration: 2 days of siRNA knock-down, then 40 min of LPS before fixing
Challenge: LPS (Salmonella minnesota R595) at 10 ng/ml
Measurement: 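Imaging of GFP-p65 after 40 min of LPS; nuclear over perinuclear ring intensity ratio, scaled to plate median and non-targeting control wells, given as z-score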
Reading the numbers: p65 translocation z-score and gene median z-score, per vendor: higher = more nuclear NF-kappaB p65 after LPS
Rule for the call: 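Active means the replicate-mean z-score lies beyond plus or minus 2, in either direction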
Calls: active = changed p65 translocation (either direction); inactive = no clear change
Shown is one part, drawn at random, of about 3,800 reagents. 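Calls cover raised and lowered translocation; gene median uses one vendor's three siRNAs; qiagen siRNAs acted more weakly than ambion siRNAs.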 Reagents against one gene are numbered here. Reagent sequences are not shown.

Mrps5 (mitochondrial ribosomal protein S5) #1, siRNA vendor or control pool ambion single siRNA | p65 translocation z-score, replicate mean: -0.962; p65 translocation z-score, replicate 1: -0.962; gene median z-score, per vendor: -0.962; Call: inactive
Mrps5 (mitochondrial ribosomal protein S5) #2, siRNA vendor or control pool ambion single siRNA | p65 translocation z-score, replicate mean: -0.0342; p65 translocation z-score, replicate 1: 0.737; p65 translocation z-score, replicate 2: -0.805; gene median z-score, per vendor: -0.962; Call: inactive
Mrps5 (mitochondrial ribosomal protein S5) #3, siRNA vendor or control pool ambion single siRNA | p65 translocation z-score, replicate mean: -1.79; p65 translocation z-score, replicate 1: -1.49; p65 translocation z-score, replicate 2: -2.1; gene median z-score, per vendor: -0.962; Call: inactive
Mrps5 (mitochondrial ribosomal protein S5) #4, siRNA vendor or control pool qiagen single siRNA | p65 translocation z-score, replicate mean: 4.42; p65 translocation z-score, replicate 1: 2.04; p65 translocation z-score, replicate 2: 6.79; gene median z-score, per vendor: 0.0789; Call: active
Mrps5 (mitochondrial ribosomal protein S5) #5, siRNA vendor or control pool qiagen single siRNA | p65 translocation z-score, replicate mean: 0.00717; p65 translocation z-score, replicate 1: 1.55; p65 translocation z-score, replicate 2: -1.54; gene median z-score, per vendor: 0.0789; Call: inactive
Mrps5 (mitochondrial ribosomal protein S5) #6, siRNA vendor or control pool qiagen single siRNA | p65 translocation z-score, replicate mean: -1.43; p65 translocation z-score, replicate 1: -1.47; p65 translocation z-score, replicate 2: -1.39; gene median z-score, per vendor: 0.0789; Call: inactive

Copied from the listing (2 entries):
Mrps5 (mitochondrial ribosomal protein S5) #1, siRNA vendor or control pool ambion single siRNA | p65 translocation z-score, replicate mean: -0.962; p65 translocation z-score, replicate 1: -0.962; gene median z-score, per vendor: -0.962; Call: inactive
Mrps5 (mitochondrial ribosomal protein S5) #2, siRNA vendor or control pool ambion single siRNA | p65 translocation z-score, replicate mean: -0.0342; p65 translocation z-score, replicate 1: 0.737; p65 translocation z-score, replicate 2: -0.805; gene median z-score, per vendor: -0.962; Call: inactive

Next results follow.
Gsta3 (glutathione S-transferase, alpha 3) #1, siRNA vendor or control pool ambion single siRNA | p65 translocation z-score, replicate mean: -0.473; p65 translocation z-score, replicate 1: 0.729; p65 translocation z-score, replicate 2: -1.68; gene median z-score, per vendor: 0.639; Call: inactive
Gsta3 (glutathione S-transferase, alpha 3) #2, siRNA vendor or control pool ambion single siRNA | gene median z-score, per vendor: 0.639; Call: inactive
Gsta3 (glutathione S-transferase, alpha 3) #3, siRNA vendor or control pool ambion single siRNA | p65 translocation z-score, replicate mean: 2.09; p65 translocation z-score, replicate 1: 3.63; p65 translocation z-score, replicate 2: 0.548; gene median z-score, per vendor: 0.639; Call: active
Gsta3 (glutathione S-transferase, alpha 3) #4, siRNA vendor or control pool qiagen single siRNA | p65 translocation z-score, replicate mean: 0.339; p65 translocation z-score, replicate 1: 0.0358; p65 translocation z-score, replicate 2: 0.643; gene median z-score, per vendor: 0.203; Call: inactive
Gsta3 (glutathione S-transferase, alpha 3) #5, siRNA vendor or control pool qiagen single siRNA | p65 translocation z-score, replicate mean: 0.308; p65 translocation z-score, replicate 1: -0.053; p65 translocation z-score, replicate 2: 0.669; gene median z-score, per vendor: 0.203; Call: inactive
Gsta3 (glutathione S-transferase, alpha 3) #6, siRNA vendor or control pool qiagen single siRNA | p65 translocation z-score, replicate mean: 0.0936; p65 translocation z-score, replicate 1: -0.183; p65 translocation z-score, replicate 2: 0.371; gene median z-score, per vendor: 0.203; Call: inactive
